Assay [1] addresses Caveolin-1 (mouse (endogenous in NSC-34)) (UniProt P49817). The assay can be described thus: native gel or EMSA; native western blot (Tris-glycine running buffer without SDS, 12% gel) of lysate of NSC-34 cells (control, WT, A4V or FH SOD1 overexpressed); Caveolin-1 oligomers break down with 0.1 M DTT and heat. In general terms: Mobility shift assays separate free from complexed probe on a gel.

Assay [2] has as its target Cavin-1 (mouse (endogenous in NSC-34)) (UniProt O54724). The description is as above.

These are yes or no findings as the source states them, for the method shown. Some entries that bind do so weakly or less than the wild type.

B1: Caveolin-1 (protein, UniProt P49817 1-178)
chain: MSGGKYVDSEGHLYTVPIREQGNIYKPNNKAMADEVTEKQVYDAHTKEIDLVNRDPKHLNDDVVKIDFEDVIAEPEGTHSFDGIWKASFTTFTVTKYWFYRLLSTIFGIPMALIWGIYFAILSFLHIWAVVPCIKSFLIEIQCISRVYSIYVHTFCDPLFEAIGKIFSNIRISTQKEI
In the case of B1, the binding result in assay [1] is recorded as “binds”.

B2: Cavin-1 (natural protein, mouse (endogenous in NSC-34), UniProt O54724 1-392, looked up)
chain: MEDVTLHIVERPYSGFPDASSEGPEPTQGEARATEEPSGTGSDELIKSDQVNGVLVLSLLDKIIGAVDQIQLTQAQLEERQAEMEGAVQSIQGELSKLGKAHATTSNTVSKLLEKVRKVSVNVKTVRGSLERQAGQIKKLEVNEAELLRRRNFKVMIYQDEVKLPAKLSVSKSLKESEALPEKEGDELGEGERPEDDTAAIELSSDEAVEVEEVIEESRAERIKRSGLRRVDDFKKAFSKEKMEKTKVRTRENLEKTRLKTKENLEKTRHTLEKRMNKLGTRLVPVERREKLKTSRDKLRKSFTPDHVVYARSKTAVYKVPPFTFHVKKIREGEVEVLKATEMVEVGPEDDEVGAERGEATDLLRGSSPDVHTLLEITEESDAVLVDKSDSD
notes: Cavin-1, endogenous in NSC-34 cells, detected by western blot; source: endogenous, NSC-34 lysate (RIPA buffer)
For B2, the binding result in assay [2] was “binds”.

These data come from paper PMC13064919, “Novel extracellular vesicle release pathway facilitated by toxic superoxide dismutase 1 oligomers” (Neurobiology of disease, 2026).
